Laboratory results taken from paper PMC10184828.
These are yes or no findings as the source states them, for the method shown. For part of these data: A result given as binding can be weak or reduced; the word gives no strength. Sequences can lack the tags named with a protein. For part of these data: Binding seen in cells or lysates may run through a third protein.

How the values were obtained:
[1] = biological target: Sed4^ΔC–Flag (S. cerevisiae); assay: co-IP; octylglucoside-solubilized extracts of sed4Δ cells (or sed4Δ sec16Δ cells expressing Sec16 or Sec16^ΔS4B); immunoprecipitation with anti-Flag (anti-DDDDK) antibody, blot with anti-Flag and anti-V5; 25 mM HEPES pH 8.0, 150 mM NaCl, 1 mM EDTA, 5% glycerol, 4°C
[2] = biological target: Sed4^ΔL–Flag (S. cerevisiae); assay: as above
[3] = biological target: Sed4C, the N-terminal cytosolic domain of Sed4 (binding domain-fused) (S. cerevisiae); assay: two-hybrid; Gal4 activation domain-fused Sec16 fragments (pGAD-C1) with Gal4 DNA-binding domain-fused Sec23, Sed4C, Sec12C or Sec12C chimeras (pGBDU-C1); growth on plates lacking histidine, leucine and uracil at 30°C for 4 days
[4] = biological target: Sec12C, the N-terminal cytosolic domain of Sec12 (binding domain-fused) (S. cerevisiae); assay: as above
[5] = biological target: Sec12C4b1-2 (binding domain-fused) (S. cerevisiae); assay: as above
[6] = biological target: Sec12C4b2-3 (binding domain-fused) (S. cerevisiae); assay: as above
[7] = biological target: Sec12C4b1-3 (binding domain-fused) (S. cerevisiae); assay: as above
[8] = biological target: Sec12C4b1-5 (binding domain-fused) (S. cerevisiae); assay: as above

binding [3]	binding [4]	Binder	other results
		Sed4–V5 (protein, UniProt P25365 1-1065) MSGNSANYDVGYPIYGAKFINEGTLLVAGGGGQFNSSFPNKITALKVNFQKKKHIRRFREITLDSIDDAPTSLDCNNNLILVGCNELFNDSSMENVNHHLRKFVFEQEHLKFVASIDFNRTTDPSVFTKFVYINQRATVAAIASSEVPTVIRIIDPRNLTENYEIETGREVNDLHFAPNGILLSYITSNSLEVASVRDGNFVARKTDFDKNLVLSNIRFLNDNTLLVAASLSNSDGVSLLKLGVSSKGVKILKTASFMFDLNGITSMDVSPNKKFVALSSNDNLVAIVSVEKLKLVQLVPRVHESTITKVTFSPDSRYLASTSMGNTINVLKLSGTSSSILRNIWKFFLNFVLLVVLAGAIQLGYKHNVHGFIYKHAHDIYKSKFKENTTIDQGSSSYFTINDDYRGITESADIISATDVASDIETEFSSFDTSTMRTTTEDEQKFVWISSSADSQFTSADIPTSASSSSSSSSSSFYEESVTNEPIVSSPTSEITKPLASPTEPNIVEKPSLPLNSESIDLLSSSSNSITEYPEPTPDLEEKLSSLIVEQSESEITTDRESVSKLLSTESPSLSHMPSSSSSSLSLSSSLTTSPTTALSTSTATAVTTTQTNPTNDAANTSFLDNSKPASTREIYKTKIITEVITKIEYRNIPASDSNAEAEQYVTTSSSMLLTPTDTMVSSPVSEIDPIASELERMVETPTHSISIASEFDSVASNLIPNEEILSTSASQDSISSHPSTFSDSSITSGFQSIEVSTVTSSVLASESIPSISDSTFSKFHSISEPVSSAIVETATSSFSKTETKTSRVIAFSTEDSERSSALIDNSEYTSVLADNLEPTSVLADNSEPTSVLADSSEPTSVFTDAVQSPKTSVGQSSLSESTNIEGTSMASMIFSSSGASIGALSDIGKGTLSVESASSTVAQPMPGVTTTAPSFVSSPHKISASSIDASGFVQKEIMIEVQSSKDSSEAFGVRHKISENVNTPVSRMLTTEMQASGTVDVTEDVSLSSEVISALNVEITSLPNPVAPPQTIAAPLNNNSNTNIVNDDNAVAGTVNYAGLHDEL	binding [1]: no binding; binding [2]: no binding
binds	no binding	Sec16 fragment 1639–1996 (activation domain-fused) (domain or fragment, UniProt P48415 1639-1996) MYSPSVEALPIDPVVPQVHETGYNDFGNKHSQKSMPEDESHTSHDNSNADQNTLKDSADVTDETMDIEGPGFNDVKNLLPMEPNHQPTSTVNPIQTISDDIQPILQTNVEVRGTDASKMENSLPSIENERSSEEQPENISKSASSAYLPSTGGLSLENRPLTQDENSISETVQSTYLPAGSISMEAKPISQVQDVPRNVNNKASKLVEQHMAPPKPKSTDATKMNYSPYVPQSTAASADGDESTILKTSPAIYARTHQAHASNPSQYFPLVNQANETASFELSESTSQAQSNGNVASENRFSPIKKAEVVEKDTFQPTIRKASTNQYRAFKPLESDADKYNDVIEDESDDDNMSTDEA	
no binding	no binding	Sec16 fragment 1639–1967 (activation domain-fused) (domain or fragment, UniProt P48415 1639-1967) MYSPSVEALPIDPVVPQVHETGYNDFGNKHSQKSMPEDESHTSHDNSNADQNTLKDSADVTDETMDIEGPGFNDVKNLLPMEPNHQPTSTVNPIQTISDDIQPILQTNVEVRGTDASKMENSLPSIENERSSEEQPENISKSASSAYLPSTGGLSLENRPLTQDENSISETVQSTYLPAGSISMEAKPISQVQDVPRNVNNKASKLVEQHMAPPKPKSTDATKMNYSPYVPQSTAASADGDESTILKTSPAIYARTHQAHASNPSQYFPLVNQANETASFELSESTSQAQSNGNVASENRFSPIKKAEVVEKDTFQPTIRKASTNQYRA	
binds	no binding	Sec16 fragment 1639–2195 (activation domain-fused) (domain or fragment, UniProt P48415 1639-2195) MYSPSVEALPIDPVVPQVHETGYNDFGNKHSQKSMPEDESHTSHDNSNADQNTLKDSADVTDETMDIEGPGFNDVKNLLPMEPNHQPTSTVNPIQTISDDIQPILQTNVEVRGTDASKMENSLPSIENERSSEEQPENISKSASSAYLPSTGGLSLENRPLTQDENSISETVQSTYLPAGSISMEAKPISQVQDVPRNVNNKASKLVEQHMAPPKPKSTDATKMNYSPYVPQSTAASADGDESTILKTSPAIYARTHQAHASNPSQYFPLVNQANETASFELSESTSQAQSNGNVASENRFSPIKKAEVVEKDTFQPTIRKASTNQYRAFKPLESDADKYNDVIEDESDDDNMSTDEAKNRKEEKKNVNMKKETKPSNKDIDDKSNGWFGWLKKDTGDKKVYKAKLGHKNTLYYDEKLKRWVNKDATEEEKQKIIESSAPPPPPIVKRKDGGPKTKPRSGPINNSLPPVHATSVIPNNPITGEPLPIKTSPSPTGPNPNNSPSPSSPISRISGVNLTSKKANGLDDLLSLAGGPKPASTRRKKKTARGYVNVMDNIQ	
binds	no binding	Sec16 fragment 1856–2195 (activation domain-fused) (domain or fragment, UniProt P48415 1856-2195) STDATKMNYSPYVPQSTAASADGDESTILKTSPAIYARTHQAHASNPSQYFPLVNQANETASFELSESTSQAQSNGNVASENRFSPIKKAEVVEKDTFQPTIRKASTNQYRAFKPLESDADKYNDVIEDESDDDNMSTDEAKNRKEEKKNVNMKKETKPSNKDIDDKSNGWFGWLKKDTGDKKVYKAKLGHKNTLYYDEKLKRWVNKDATEEEKQKIIESSAPPPPPIVKRKDGGPKTKPRSGPINNSLPPVHATSVIPNNPITGEPLPIKTSPSPTGPNPNNSPSPSSPISRISGVNLTSKKANGLDDLLSLAGGPKPASTRRKKKTARGYVNVMDNIQ	binding [5]: no binding; binding [6]: no binding; binding [7]: binds; binding [8]: binds
no binding	no binding	Sec16 fragment 1968–2195 (activation domain-fused) (domain or fragment, UniProt P48415 1968-2195) FKPLESDADKYNDVIEDESDDDNMSTDEAKNRKEEKKNVNMKKETKPSNKDIDDKSNGWFGWLKKDTGDKKVYKAKLGHKNTLYYDEKLKRWVNKDATEEEKQKIIESSAPPPPPIVKRKDGGPKTKPRSGPINNSLPPVHATSVIPNNPITGEPLPIKTSPSPTGPNPNNSPSPSSPISRISGVNLTSKKANGLDDLLSLAGGPKPASTRRKKKTARGYVNVMDNIQ	
no binding	no binding	Sec16 fragment 1639–2195 Δ1856–1967 (activation domain-fused) (domain or fragment, UniProt P48415) MYSPSVEALPIDPVVPQVHETGYNDFGNKHSQKSMPEDESHTSHDNSNADQNTLKDSADVTDETMDIEGPGFNDVKNLLPMEPNHQPTSTVNPIQTISDDIQPILQTNVEVRGTDASKMENSLPSIENERSSEEQPENISKSASSAYLPSTGGLSLENRPLTQDENSISETVQSTYLPAGSISMEAKPISQVQDVPRNVNNKASKLVEQHMAPPKPKFKPLESDADKYNDVIEDESDDDNMSTDEAKNRKEEKKNVNMKKETKPSNKDIDDKSNGWFGWLKKDTGDKKVYKAKLGHKNTLYYDEKLKRWVNKDATEEEKQKIIESSAPPPPPIVKRKDGGPKTKPRSGPINNSLPPVHATSVIPNNPITGEPLPIKTSPSPTGPNPNNSPSPSSPISRISGVNLTSKKANGLDDLLSLAGGPKPASTRRKKKTARGYVNVMDNIQ	
